Reference: PubChem BioAssay AID1508597 (Cure First, 2020)
Test: 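Survival screen with siRNA in ovarian cancer cells derived from patients, with or without rucaparib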 (primary screen). Cell system: human ovarian carcinoma lines grown from tumours: OCI-P5x (papillary serous) and OCI-C5x (clear cell). Knock-down reagent: siRNA pool against human genes, 1.25 pmol siRNA per well. Time to read-out: 72 h or 96 h, depending on the cell culture. Conditions: rucaparib 20 µM (about IC30) or vehicle, present until read-out. Rucaparib or vehicle: Vehicle. Cell line: OCI-C5x (clear cell). Read-out: 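Luminescent ATP-based viability assay read 72 or 96 h after transfection, depending on culture, given as normalised percent viability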. Scale: viability, normalised: higher = more viable cells remaining. Active means: 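Active when normalised viability falls below 80 percent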. Calls: active = viability under 80%; inactive = viability 80% or more.
Shown is an unselected part of the about 2,100 reagents, under one of the conditions tested. 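Calls flag viability under 80% in either arm, not effects specific to rucaparib; the reference for percent is not stated.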 Entries without a mark were called inactive. The numbers tell different reagents against one gene apart. Some reagents were tested in more than one well and are listed for each. The record does not give: the 100% reference.

gene knocked down	pool no.	technical replicate	viability, normalised (%)
RASSF7 (Ras association domain family member 7)	1	1	76.1 (active)
RASSF7 (Ras association domain family member 7)	1	2	70.4 (active)
RASSF7 (Ras association domain family member 7)	1	3	83.2
PDE6G (phosphodiesterase 6G)	1	1	54.7 (active)
PDE6G (phosphodiesterase 6G)	1	2	60.2 (active)
PDE6G (phosphodiesterase 6G)	1	3	72.8 (active)
CDK17 (cyclin dependent kinase 17)	1	1	66.6 (active)
CDK17 (cyclin dependent kinase 17)	1	2	44 (active)
CDK17 (cyclin dependent kinase 17)	1	3	55.9 (active)
FMR1 (fragile X messenger ribonucleoprotein 1)	1	1	68 (active)
FMR1 (fragile X messenger ribonucleoprotein 1)	1	2	71.4 (active)
FMR1 (fragile X messenger ribonucleoprotein 1)	1	3	71 (active)
NLGN2 (neuroligin 2)	1	1	50.6 (active)
NLGN2 (neuroligin 2)	1	2	46.5 (active)
NLGN2 (neuroligin 2)	1	3	54.2 (active)
IL10 (interleukin 10)	1	1	83.5
IL10 (interleukin 10)	1	2	70.4 (active)
IL10 (interleukin 10)	1	3	75.4 (active)
TJP1 (tight junction protein 1)	1	1	96.3
TJP1 (tight junction protein 1)	1	2	57.8 (active)
TJP1 (tight junction protein 1)	1	3	58.8 (active)
PAK5 (p21 (RAC1) activated kinase 5)	1	1	54.3 (active)
PAK5 (p21 (RAC1) activated kinase 5)	1	2	45.9 (active)
PAK5 (p21 (RAC1) activated kinase 5)	1	3	39.3 (active)
FLT3 (fms related receptor tyrosine kinase 3)	1	1	59.1 (active)
FLT3 (fms related receptor tyrosine kinase 3)	1	2	49 (active)
FLT3 (fms related receptor tyrosine kinase 3)	1	3	48.5 (active)
ATRIP (ATR interacting protein)	1	1	39.6 (active)
ATRIP (ATR interacting protein)	1	2	36.8 (active)
ATRIP (ATR interacting protein)	1	3	35.2 (active)
CUL3 (cullin 3)	1	1	45.6 (active)
CUL3 (cullin 3)	1	2	63.3 (active)
CUL3 (cullin 3)	1	3	55.7 (active)
HELQ (helicase, POLQ like)	1	1	60.9 (active)
HELQ (helicase, POLQ like)	1	2	60.7 (active)
HELQ (helicase, POLQ like)	1	3	68.1 (active)
HELQ (helicase, POLQ like)	2	1	41.3 (active)
HELQ (helicase, POLQ like)	2	2	48.1 (active)
HELQ (helicase, POLQ like)	2	3	61 (active)
CHMP2A (charged multivesicular body protein 2A)	1	1	20.2 (active)
CHMP2A (charged multivesicular body protein 2A)	1	2	17.8 (active)
CHMP2A (charged multivesicular body protein 2A)	1	3	21.4 (active)
HPS1 (HPS1 biogenesis of lysosomal organelles complex 3 subunit 1)	1	1	57.5 (active)
HPS1 (HPS1 biogenesis of lysosomal organelles complex 3 subunit 1)	1	2	62.5 (active)
HPS1 (HPS1 biogenesis of lysosomal organelles complex 3 subunit 1)	1	3	85.5
TP53 (tumor protein p53)	1	1	66 (active)
TP53 (tumor protein p53)	1	1	49.9 (active)
TP53 (tumor protein p53)	1	1	25.9 (active)
TP53 (tumor protein p53)	1	2	71.3 (active)
TP53 (tumor protein p53)	1	2	48.9 (active)
TP53 (tumor protein p53)	1	2	63.5 (active)
TP53 (tumor protein p53)	1	3	51.2 (active)
TP53 (tumor protein p53)	1	3	56.4 (active)
TP53 (tumor protein p53)	1	3	76.9 (active)
PHF3 (PHD finger protein 3)	1	1	33.8 (active)
PHF3 (PHD finger protein 3)	1	2	37.4 (active)
PHF3 (PHD finger protein 3)	1	3	42.2 (active)

Taken from above.
PAK5 (p21 (RAC1) activated kinase 5), technical replicate 3, viability, normalised (%) → 39.3 (active)
Result for FMR1 (fragile X messenger ribonucleoprotein 1), technical replicate 1 under “viability, normalised (%)”: 68 (active)
Value of NLGN2 (neuroligin 2), technical replicate 3 under “viability, normalised (%)”: 54.2 (active)
IL10 (interleukin 10), technical replicate 1, viability, normalised (%): 83.5
ATRIP (ATR interacting protein), technical replicate 1, viability, normalised (%) → 39.6 (active)
CUL3 (cullin 3), technical replicate 1, viability, normalised (%) = 45.6 (active)
